PubChem BioAssay AID1259425 | University of Nebraska Medical Center – 2018
Screen: 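Seek colon cancer weak points whose silencing resembles KSR1 loss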 (primary screen). Cells: HCT116 human colon cancer cells. Reagent: siRNA pool against human genes, 50 nM siRNA. Measurement: 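mRNA of six signature genes measured together by branched-DNA assay after 50 nM siRNA pool, blank removed, divided by geometric mean of two housekeeping genes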. Reading the numbers: BNIP3L mRNA: higher = more BNIP3L transcript after knockdown; NDRG1 mRNA: higher = more NDRG1 transcript after knockdown; BNIP3 mRNA: higher = more BNIP3 transcript after knockdown; ALDOC mRNA: higher = more ALDOC transcript after knockdown.
This is a random part of about 14,000 deposited reagents. Not all columns of the deposit are shown. No sequences are given here. Not given: the time to read-out.

"BNIP3L mRNA, set 1","NDRG1 mRNA, set 1","BNIP3 mRNA, set 1","ALDOC mRNA, set 1",Gene
0.0882,0.0588,0.371,0.0119,DUSP10 (dual specificity phosphatase 10)
0.0941,0.167,0.231,0.0498,QRFPR (pyroglutamylated RFamide peptide receptor)
0.0914,0.0871,0.303,0.0085,"ELANE (elastase, neutrophil expressed)"
0.434,1.27,0.989,0.25,ATP6V0A1 (ATPase H+ transporting V0 subunit a1)
0.194,0.118,0.275,0.0281,HOXA5 (homeobox A5)
0.064,0.426,0.221,0.0175,DENND1B (DENN domain containing 1B)
0.0831,0.191,0.277,0.0252,PAN2 (poly(A) specific ribonuclease subunit PAN2)
0.0918,0.292,0.314,0.0202,PRCC (proline rich mitotic checkpoint control factor)
0.0938,0.462,0.309,0.0496,XPC
0.115,0.252,0.29,0.0209,RNF103 (ring finger protein 103)
0.133,0.185,0.526,0.0447,TES (testin LIM domain protein)
0.135,0.144,0.442,0.0231,SHTN1 (shootin 1)
0.0898,0.173,0.375,0.0184,ATP5F1C (ATP synthase F1 subunit gamma)
0.31,1.08,0.416,0.122,PSMA7 (proteasome 20S subunit alpha 7)
0.0483,0.155,0.148,0.0267,CUL1 (cullin 1)
0.0482,0.14,0.322,0.0302,SBNO1 (strawberry notch homolog 1)
0.0535,0.0809,0.194,0.0278,OPA1 (OPA1 mitochondrial dynamin like GTPase)
0.148,0.318,0.245,0.048,HLCS (holocarboxylase synthetase)
0.116,0.2,0.351,0.0204,ASRGL1 (asparaginase and isoaspartyl peptidase 1)
0.111,0.116,0.363,0.0256,SLC35F6
0.0592,0.117,0.218,0.0174,CCNT1 (cyclin T1)
0.126,0.202,0.284,0.0229,NDUFS5 (NADH:ubiquinone oxidoreductase subunit S5)
0.0521,0.072,0.281,0.0163,NR0B2 (nuclear receptor subfamily 0 group B member 2)
0.146,0.117,0.249,0.0167,NOS3 (nitric oxide synthase 3)
0.0868,0.352,0.406,0.0115,TVP23B (trans-golgi network vesicle protein 23 homolog B)
0.245,0.218,0.542,0.0624,ENTPD7 (ectonucleoside triphosphate diphosphohydrolase 7)
0.101,0.122,0.272,0.0191,CDV3 (CDV3 homolog)
0.14,0.18,0.294,0.0394,LRRFIP1 (LRR binding FLII interacting protein 1)
0.129,0.335,0.17,0.0282,STON1 (stonin 1)
0.152,0.372,0.419,0.0226,SERPIND1 (serpin family D member 1)
0.0843,0.0829,0.262,0.0171,EPHX1 (epoxide hydrolase 1)
0.0489,0.221,0.361,0.0294,RARRES2 (retinoic acid receptor responder 2)
0.0488,0.0646,0.189,0.0153,GHR (growth hormone receptor)
0.0866,0.147,0.322,0.0233,SLC5A2
0.0971,0.388,0.329,0.0369,FBRS (fibrosin)
0.109,0.0907,0.344,0.0237,ZNF706 (zinc finger protein 706)
0.0842,0.0706,0.348,0.0167,MAPK14 (mitogen-activated protein kinase 14)
0.179,0.824,0.333,0.0501,LENEP (lens epithelial protein)
0.0631,0.242,0.341,0.00431,DUSP6 (dual specificity phosphatase 6)
0.125,0.731,0.371,0.0488,PHF14 (PHD finger protein 14)
0.172,0.279,0.292,0.0135,MOV10L1 (Mov10 like RNA helicase 1)
0.0675,0.288,0.302,0.0272,PTPRM (protein tyrosine phosphatase receptor type M)
0.102,0.119,0.243,0.037,IL18 (interleukin 18)
0.234,0.246,0.304,0.0376,CELA1 (chymotrypsin like elastase 1)
0.0896,0.196,0.332,0.0137,"LAMTOR3 (late endosomal/lysosomal adaptor, MAPK and MTOR activator 3)"
0.263,0.792,0.197,0.042,FIZ1 (FLT3 interacting zinc finger 1)
0.188,0.176,0.481,0.0426,MTHFD1
0.115,0.404,0.244,0.0163,IL12RB1 (interleukin 12 receptor subunit beta 1)
0.0867,0.0917,0.206,0.034,DSG3 (desmoglein 3)
0.0676,0.119,0.217,0.0192,CCL18 (C-C motif chemokine ligand 18)

Targets above whose gene name starts with A or a:
"BNIP3L mRNA, set 1","NDRG1 mRNA, set 1","BNIP3 mRNA, set 1","ALDOC mRNA, set 1",Gene
0.434,1.27,0.989,0.25,ATP6V0A1 (ATPase H+ transporting V0 subunit a1)
0.0898,0.173,0.375,0.0184,ATP5F1C (ATP synthase F1 subunit gamma)
0.116,0.2,0.351,0.0204,ASRGL1 (asparaginase and isoaspartyl peptidase 1)
